# Laboratory results as given in PMC8000039, “Toxin-Activating Stapled Peptides Discovered by Structural Analysis Were Identified as New Therapeutic Candidates That Trigger Antibacterial Activity against Mycobacterium tuberculosis in the Mycobacterium smegmatis Model” (Microorganisms, 2021).
# Protein sequences, listed by entry. Tags and fused reporters are not part of them.
# UniProt O53778: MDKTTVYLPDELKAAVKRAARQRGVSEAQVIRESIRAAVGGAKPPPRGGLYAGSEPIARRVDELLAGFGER
# Results are given in words; binding and its absence hold for the method and conditions named. Some entries that bind do so weakly or less than the wild type.
# B1: VapC26 toxin (Rv0582) (enzyme, UniProt O53779 1-135)
# chain: MIIDTSALLAYFDAAEPDHAAVSECIDSSADALVVSPYVVAELDYLVATRVGVDAELAVLRELAGGAWELANCGAAEIEQAARIVTKYQDQRIGIADAANVVLADRYRTRTILTLDRRHFSALRPIGGGRFTVIP
# Target: VapB26 antitoxin (Rv0581) (Mycobacterium tuberculosis) (UniProt O53778)
# Assay: co-purification of the complex
binder,measurement,value
B1,binding,binds
